PubChem BioAssay AID602196 – INSERM, 2012
Here is a random part of about 23,000 deposited reagents. 455 of all reagents (2%) were called active. 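Active includes both protection and sensitisation; some change values fall well beyond the stated -50 to +50 range.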 A number with no mark means an inactive call. Not stated in the record: the amount of reagent.

Screen: 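Knock-downs that protect lung cancer cells from cisplatin or sensitise them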
System: human A549 lung cancer cells
Reagent: siRNA pair against human genes
Timing: 48 h transfection before cisplatin; time from cisplatin to read-out not stated
Conditions: cisplatin at a dose killing half of control-siRNA cells; exact dose and duration not given
Measurement: 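Cisplatin cell death as a shift from the 50% death seen with control siRNA; siRNAs toxic or growth-blocking alone scored 0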
Direction: two-siRNA summed score (-2 to +2): higher = both siRNAs protect from cisplatin killing; -2 means both sensitise; mean protection from cisplatin (shift in death) and protection from cisplatin (shift in death), siRNA C and protection from cisplatin (shift in death), siRNA D: higher = protection from cisplatin killing
Call rule: 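Each siRNA scores 0 if harmful alone by LDH or WST-1, otherwise +1 if it reduces and -1 if it increases cisplatin killing; a gene is active when both siRNAs agree (sum +2 or -2)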
Meaning of the calls: active = both siRNAs shift cisplatin killing the same way; inactive = no consistent shift, or siRNA harmful alone

gene symbol,PubChem SID,two-siRNA summed score (-2 to +2),mean protection from cisplatin (shift in death) (%),"protection from cisplatin (shift in death), siRNA C (%)","protection from cisplatin (shift in death), siRNA D (%)"
TTC39B,SID131508109,0,0.6,1.4,-0.2
ABCD2,SID131500862,-1,-15,-4.4,-25.7
ABCD2,SID131503819,0,-7.6,-1.4,-13.9
MXI1,SID131500957,-1,-13.9,-6.8,-20.9
RFX4,SID131521262,1,12.8,21.8,3.9
KRTAP13-4,SID131518825,0,29.8,2.7,56.9
LOC388140,SID131503811,0,-7.7,1.8,-17.2
LOC389237,SID131522425,1,18.4,22.6,14.3
RHAG,SID131501541,-1,-9.1,-18.6,0.4
SLC25A28,SID131502274,-1,-3.8,13.2,-20.9
LINGO4,SID131508633,0,1.3,15.5,-12.9
CCR2,SID131519792,1,7.5,-5,19.9
PEX5,SID131516187,0,10.4,9.2,11.6
OR2D3,SID131511249,0,4.1,12.3,-4
CNNM2,SID131506872,0,-0.9,-4.6,2.8
SPTA1,SID131507346,0,-0.3,9.4,-10
DLG2,SID131505961,0,-2.3,-7.8,3.3
SEC61G,SID131519639,1,6.8,-2.5,16
SULT4A1,SID131520473,1,10,15.3,4.8
LOC440369,SID131515623,0,9.4,7.8,11.1
ZFAND4,SID131509427,0,2.1,-1,5.3
DNMT1,SID131514583,0,8,6.8,9.1
HJURP,SID131501127,-1,-12.1,-28.4,4.2

Reformatted: results already given
gene symbol | PubChem SID | two-siRNA summed score (-2 to +2) | mean protection from cisplatin (shift in death) (%) | protection from cisplatin (shift in death), siRNA C (%) | protection from cisplatin (shift in death), siRNA D (%)
SPTA1 | SID131507346 | 0 | -0.3 | 9.4 | -10
DLG2 | SID131505961 | 0 | -2.3 | -7.8 | 3.3
SEC61G | SID131519639 | 1 | 6.8 | -2.5 | 16
